From publication PMC8616561 come the findings set out here.

Sequences of proteins named here, by UniProt entry; tags and fusion partners are left off.
UniProt Q923J1: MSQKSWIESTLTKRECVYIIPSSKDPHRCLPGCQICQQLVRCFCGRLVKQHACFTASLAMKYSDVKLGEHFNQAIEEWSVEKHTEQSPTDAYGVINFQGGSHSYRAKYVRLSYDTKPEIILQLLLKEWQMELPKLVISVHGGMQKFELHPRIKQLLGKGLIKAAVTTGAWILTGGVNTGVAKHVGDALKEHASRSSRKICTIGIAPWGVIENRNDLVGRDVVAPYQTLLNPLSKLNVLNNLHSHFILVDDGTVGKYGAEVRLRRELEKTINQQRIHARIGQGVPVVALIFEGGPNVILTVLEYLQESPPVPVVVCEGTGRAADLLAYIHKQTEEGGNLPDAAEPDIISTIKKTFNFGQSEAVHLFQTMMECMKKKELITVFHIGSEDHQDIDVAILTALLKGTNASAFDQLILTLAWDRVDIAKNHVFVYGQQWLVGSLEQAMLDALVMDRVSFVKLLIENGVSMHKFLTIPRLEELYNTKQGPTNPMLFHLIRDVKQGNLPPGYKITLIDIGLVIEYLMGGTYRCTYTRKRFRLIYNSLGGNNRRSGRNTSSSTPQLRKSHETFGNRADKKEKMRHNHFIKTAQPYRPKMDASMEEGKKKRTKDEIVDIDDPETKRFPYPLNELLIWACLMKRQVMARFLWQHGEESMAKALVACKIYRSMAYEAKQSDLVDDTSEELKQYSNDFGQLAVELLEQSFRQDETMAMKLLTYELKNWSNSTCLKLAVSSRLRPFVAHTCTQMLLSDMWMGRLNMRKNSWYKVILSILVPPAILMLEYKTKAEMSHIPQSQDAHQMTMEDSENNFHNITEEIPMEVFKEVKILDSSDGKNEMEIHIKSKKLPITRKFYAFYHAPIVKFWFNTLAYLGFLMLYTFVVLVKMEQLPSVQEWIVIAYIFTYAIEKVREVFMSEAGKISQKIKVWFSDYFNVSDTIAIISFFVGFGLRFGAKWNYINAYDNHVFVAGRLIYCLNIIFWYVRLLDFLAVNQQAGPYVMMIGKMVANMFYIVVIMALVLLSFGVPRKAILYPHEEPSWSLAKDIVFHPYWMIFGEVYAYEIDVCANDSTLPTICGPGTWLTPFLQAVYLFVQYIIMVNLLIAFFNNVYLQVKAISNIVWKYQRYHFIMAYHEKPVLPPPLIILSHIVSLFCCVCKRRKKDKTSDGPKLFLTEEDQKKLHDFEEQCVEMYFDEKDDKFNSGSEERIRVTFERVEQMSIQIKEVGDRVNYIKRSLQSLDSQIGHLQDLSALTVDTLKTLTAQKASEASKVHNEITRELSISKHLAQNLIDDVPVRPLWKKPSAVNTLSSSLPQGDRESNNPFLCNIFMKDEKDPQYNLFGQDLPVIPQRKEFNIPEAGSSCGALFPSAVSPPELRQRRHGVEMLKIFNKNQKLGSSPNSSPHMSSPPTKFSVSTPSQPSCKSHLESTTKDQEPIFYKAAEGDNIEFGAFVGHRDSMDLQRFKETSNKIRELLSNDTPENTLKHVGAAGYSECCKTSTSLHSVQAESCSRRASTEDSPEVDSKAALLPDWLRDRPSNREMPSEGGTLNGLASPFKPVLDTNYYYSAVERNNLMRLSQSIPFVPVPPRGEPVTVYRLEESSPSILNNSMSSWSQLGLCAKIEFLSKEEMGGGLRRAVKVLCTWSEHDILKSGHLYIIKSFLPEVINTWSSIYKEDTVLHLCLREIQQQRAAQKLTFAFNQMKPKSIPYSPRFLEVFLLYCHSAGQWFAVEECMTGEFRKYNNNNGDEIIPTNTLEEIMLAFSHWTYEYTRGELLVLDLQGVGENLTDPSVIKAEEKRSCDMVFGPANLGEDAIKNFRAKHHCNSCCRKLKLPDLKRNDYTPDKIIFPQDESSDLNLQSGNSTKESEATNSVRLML
UniProt Q96QT4: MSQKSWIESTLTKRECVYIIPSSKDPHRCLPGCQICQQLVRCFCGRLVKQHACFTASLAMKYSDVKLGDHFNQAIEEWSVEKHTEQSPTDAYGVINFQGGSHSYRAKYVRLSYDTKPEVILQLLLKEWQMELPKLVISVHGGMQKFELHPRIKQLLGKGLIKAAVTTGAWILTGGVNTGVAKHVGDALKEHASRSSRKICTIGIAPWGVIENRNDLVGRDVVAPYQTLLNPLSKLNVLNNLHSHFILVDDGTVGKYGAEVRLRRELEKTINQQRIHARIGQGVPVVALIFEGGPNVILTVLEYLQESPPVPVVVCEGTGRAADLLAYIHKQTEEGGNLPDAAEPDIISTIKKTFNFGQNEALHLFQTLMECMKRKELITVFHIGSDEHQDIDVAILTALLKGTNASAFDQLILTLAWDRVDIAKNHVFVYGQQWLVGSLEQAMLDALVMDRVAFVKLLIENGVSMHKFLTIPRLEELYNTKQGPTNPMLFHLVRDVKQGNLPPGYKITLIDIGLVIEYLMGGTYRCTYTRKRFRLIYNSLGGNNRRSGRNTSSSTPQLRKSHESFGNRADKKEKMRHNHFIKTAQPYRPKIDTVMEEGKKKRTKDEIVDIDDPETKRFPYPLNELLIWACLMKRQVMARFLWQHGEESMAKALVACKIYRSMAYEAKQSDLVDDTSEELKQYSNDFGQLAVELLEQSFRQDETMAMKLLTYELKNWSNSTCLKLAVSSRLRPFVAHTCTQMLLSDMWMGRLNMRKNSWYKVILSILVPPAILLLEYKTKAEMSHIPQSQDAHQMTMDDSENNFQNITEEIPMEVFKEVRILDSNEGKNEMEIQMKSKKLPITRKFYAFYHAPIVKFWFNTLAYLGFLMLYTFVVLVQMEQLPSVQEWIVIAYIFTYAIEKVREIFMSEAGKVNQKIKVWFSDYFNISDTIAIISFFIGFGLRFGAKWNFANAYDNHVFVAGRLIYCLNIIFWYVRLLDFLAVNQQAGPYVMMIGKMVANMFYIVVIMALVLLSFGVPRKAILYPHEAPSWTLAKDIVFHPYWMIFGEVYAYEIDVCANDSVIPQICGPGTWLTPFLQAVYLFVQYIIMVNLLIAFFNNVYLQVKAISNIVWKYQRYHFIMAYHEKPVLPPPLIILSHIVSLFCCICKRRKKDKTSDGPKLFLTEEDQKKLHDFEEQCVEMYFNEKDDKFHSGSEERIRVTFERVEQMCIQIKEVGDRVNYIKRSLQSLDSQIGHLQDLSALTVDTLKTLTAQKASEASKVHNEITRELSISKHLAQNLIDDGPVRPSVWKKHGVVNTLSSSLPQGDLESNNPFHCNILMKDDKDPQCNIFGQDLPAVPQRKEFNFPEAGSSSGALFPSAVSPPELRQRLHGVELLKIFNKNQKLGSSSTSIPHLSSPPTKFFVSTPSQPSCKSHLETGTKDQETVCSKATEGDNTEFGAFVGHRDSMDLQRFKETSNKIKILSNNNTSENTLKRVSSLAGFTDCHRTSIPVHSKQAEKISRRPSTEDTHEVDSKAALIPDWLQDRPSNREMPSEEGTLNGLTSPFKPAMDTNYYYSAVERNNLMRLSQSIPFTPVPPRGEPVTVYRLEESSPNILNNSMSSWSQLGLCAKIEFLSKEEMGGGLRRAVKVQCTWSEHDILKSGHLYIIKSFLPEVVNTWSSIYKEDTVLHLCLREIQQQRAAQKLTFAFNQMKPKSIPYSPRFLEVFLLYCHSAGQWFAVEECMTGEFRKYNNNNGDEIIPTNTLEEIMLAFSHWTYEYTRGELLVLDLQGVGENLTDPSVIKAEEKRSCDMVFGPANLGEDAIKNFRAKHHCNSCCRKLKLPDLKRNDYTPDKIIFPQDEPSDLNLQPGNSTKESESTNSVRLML
UniProt Q0GA42: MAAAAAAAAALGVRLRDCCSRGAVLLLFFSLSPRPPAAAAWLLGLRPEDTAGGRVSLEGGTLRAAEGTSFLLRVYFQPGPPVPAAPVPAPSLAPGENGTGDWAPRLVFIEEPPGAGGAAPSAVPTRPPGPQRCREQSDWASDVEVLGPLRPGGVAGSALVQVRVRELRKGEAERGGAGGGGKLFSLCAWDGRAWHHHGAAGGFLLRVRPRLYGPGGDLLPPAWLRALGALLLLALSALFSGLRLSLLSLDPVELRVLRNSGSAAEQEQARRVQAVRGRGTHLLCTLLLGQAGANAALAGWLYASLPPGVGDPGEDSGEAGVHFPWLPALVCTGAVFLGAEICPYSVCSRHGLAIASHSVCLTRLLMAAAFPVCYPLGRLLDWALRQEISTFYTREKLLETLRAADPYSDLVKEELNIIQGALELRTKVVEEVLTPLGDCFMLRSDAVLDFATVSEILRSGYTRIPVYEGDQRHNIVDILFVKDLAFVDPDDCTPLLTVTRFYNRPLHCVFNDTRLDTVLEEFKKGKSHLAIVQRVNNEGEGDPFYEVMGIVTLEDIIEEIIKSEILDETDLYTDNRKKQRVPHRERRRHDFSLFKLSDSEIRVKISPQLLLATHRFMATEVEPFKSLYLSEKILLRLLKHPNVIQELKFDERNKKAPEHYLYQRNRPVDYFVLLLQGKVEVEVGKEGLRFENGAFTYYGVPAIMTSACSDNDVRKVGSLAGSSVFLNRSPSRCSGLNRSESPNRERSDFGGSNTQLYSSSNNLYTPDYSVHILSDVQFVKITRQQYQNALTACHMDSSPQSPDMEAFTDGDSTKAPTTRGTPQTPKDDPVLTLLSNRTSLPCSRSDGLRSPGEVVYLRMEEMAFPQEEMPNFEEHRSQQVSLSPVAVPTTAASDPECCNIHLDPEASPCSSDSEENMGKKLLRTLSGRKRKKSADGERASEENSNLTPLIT

Substitutions are numbered along the chain they refer to. These are yes or no findings as the source states them, for the method shown. Binding seen in cells or lysates may run through a third protein. Here binding means that the protein was enriched with, or labelled near, the bait; the list need not be complete.

Assay [1] concerns the target Transient receptor potential melastatin-subfamily member 7 (TRPM7), native channel in mouse brain (mouse (endogenous in mouse brain)) (UniProt Q923J1). Briefly: affinity purification with mass spectrometry; multi-epitope APs with anti-TRPM7 antibodies cross-linked to Dynabeads, membrane fractions of adult mouse and rat brain solubilised with CL-47 or CL-91, 2 hr on ice; controls: target-unrelated antibodies; nanoLC-MS/MS, label-free quantification.

For assay [2], the target named is TRPM7, endogenous in HEK293 cells (human (endogenous in HEK293)) (UniProt Q96QT4). Briefly: affinity purification with mass spectrometry; multi-epitope APs with anti-TRPM7 antibodies cross-linked to Dynabeads, membrane fractions of HEK293 cells solubilised with CL-47 or CL-91, 2 hr on ice; control: TRPM7-/- HEK293 cells; nanoLC-MS/MS, label-free quantification.

With “Transporter CNNM1, Cyclin-M1, endogenous in rodent brain (from UniProt Q0GA42 1-951)”, in assay [1], the binding result is reported as “binds”.

B1: Transporter CNNM2, Cyclin-M2, endogenous in rodent brain (protein, UniProt Q5U2P1 1-875)
chain: MIGCGACEPEVKMAGGQAAAALPTWKMAARRSLSARGRGVLQAAAGRLLPLLLLSCCCSAGGCTAAGENEETVIIGLRLEDTNDVSFMEGGALRVSERTRVKLRVYGQNINNETWSRIAFTEHERRRHTPGERGLGGPAPPEPDSGPQRCGIRTSDIIILPHIILNRRTSGIIEIEIKPLRKMEKSKSYYLCTSLSTPALGAGGSGSASGTVGGKGGAGVAGLPPPPWAETTWIYHDGEDTKMIVGEEKKFLLPFWLQVIFISLLLCLSGMFSGLNLGLMALDPMELRIVQNCGTEKEKNYAKRIEPVRRQGNYLLCSLLLGNVLVNTTLTILLDDIAGSGLVAVVVSTIGIVIFGEIVPQAICSRHGLAVGANTIFLTKFFMMMTFPASYPVSKLLDCVLGQEIGTVYNREKLLEMLRVTDPYNDLVKEELNIIQGALELRTKTVEDVMTPLRDCFMITGEAILDFNTMSEIMESGYTRIPVFEGERSNIVDLLFVKDLAFVDPDDCTPLKTITKFYNHPLHFVFNDTKLDAMLEEFKKGKSHLAIVQRVNNEGEGDPFYEVLGIVTLEDVIEEIIKSEILDETDLYTDNRTKKKVAHRERKQDFSAFKQTDSETKVKISPQLLLAMHRFLATEVEAFSPSQMSEKILLRLLKHPNVIQELKYDEKNKKAPECYLYQRNKPVDYFVLILQGKVEVEAGKEGMKFEASAFSYYGVMALTASPVPLSLSRTFVVSRTEVLAAGSPGENKSPPRPCGLNHSDSLSRSDRIDAMTPTLGSSNNQLSSSFLQVYIPDYSVRALSDLQFVKISRQQYQNALMASRMDKTPQSSDSENTKIELTLTEMHDGLPDETANLLNEQNCVSHNKANHSLHSEGAI
Regarding B1, the binding result in assay [1] is given as “binds”.

B2: CNNM3, endogenous in HEK293 cells (protein, UniProt Q8NE01 1-707)
chain: MAAAVAAAGRLGWLFAALCLGNAAGEAAPGPRVLGFCLEEDGAAGAGWVRGGAARDTPDATFLLRLFGPGFANSSWSWVAPEGAGCREEAASPAGEWRALLRLRLRAEAVRPHSALLAVRVEPGGGAAEEAAPPWALGLGAAGLLALAALARGLQLSALALAPAEVQVLRESGSEAERAAARRLEPARRWAGCALGALLLLASLAQAALAVLLYRAAGQRAVPAVLGSAGLVFLVGEVVPAAVSGRWTLALAPRALGLSRLAVLLTLPVALPVGQLLELAARPGRLRERVLELARGGGDPYSDLSKGVLRCRTVEDVLTPLEDCFMLDASTVLDFGVLASIMQSGHTRIPVYEEERSNIVDMLYLKDLAFVDPEDCTPLSTITRFYNHPLHFVFNDTKLDAVLEEFKRGKSHLAIVQKVNNEGEGDPFYEVLGLVTLEDVIEEIIRSEILDESEDYRDTVVKRKPASLMAPLKRKEEFSLFKVSDDEYKVTISPQLLLATQRFLSREVDVFSPLRISEKVLLHLLKHPSVNQEVRFDESNRLATHHYLYQRSQPVDYFILILQGRVEVEIGKEGLKFENGAFTYYGVSALTVPSSVHQSPVSSLQPIRHDLQPDPGDGTHSSAYCPDYTVRALSDLQLIKVTRLQYLNALLATRAQNLPQSPENTDLQVIPGSQTRLLGEKTTTAAGSSHSRPGVPVEGSPGRNPGV
Regarding B2, the binding entry in assay [2] is on record as “binds”.

B3: ADP-ribosylation factor-like protein 15, endogenous in rodent brain (protein, UniProt Q8BGR6 1-204)
chain: MSDLRITEAFLYMDYLCFRALCCKGPPPARPEYDLVCIGLTGSGKTSLLSELCSESPENVVSTTGFSIKAVPFQNAVLNVKELGGADNIRKYWSRYYQGSQGVIFVLDSASSEDDLETARNELHSALQHPQLCTLPFLILANHQDKPAARSVQEIKKYFELEPLARGKRWILQPCSLDDVDTLKDSFSQLINLLEEKDHEAVRM
Consider B3, for which the binding entry in assay [1] is recorded as “binds”.

B4: ADP-ribosylation factor-like protein 15, endogenous in HEK293 cells (protein, UniProt Q9NXU5 1-204)
chain: B3 chain with E51K, E58D, V77I, T118A, V180M, T182A
For B4, the binding result in assay [2] is “binds”.

B5: Transporter CNNM4, Cyclin-M4, endogenous in rodent brain (protein, UniProt Q69ZF7 1-771)
chain: MAPGGGGGRRDGWPARGRLLLAALLLLWTRAASGQSSPQQSVILGMRLASCNKSCGMNPDGIIFVSEGSTVNLRLYGHSLGDISSNLISFTEVDDAEAVHNSTNCLELTKDLVVQRLVNVSRGNTSGMLVVITKFLRRSENMKLYALCTRPRADGPWTRWTDKDSLLFMVEEHGRFLPLWLHILLVMVLLVLSGIFSGLNLGLMALDPMELRIVQNCGTEKERKYARKIEPIRRKGNYLLCSLLLGNVLVNTSLTILLDNLIGSGIMAVASSTIGIVIFGEILPQALCSRHGLAVGANTIVLTKVFMLLTFPLSFPISKLLDFVLGQEIRTVYNREKLMEMLKVTEPYNDLVKEELNMIQGALELRTKTVEDIMTQLHDCFMIRSDAILDFNTMSEIMESGYTRIPVFEDEQSNIVDILYVKDLAFVDPDDCTPLKTITRFYNHPVHFVFHDTKLDAMLEEFKKGKSHLAIVQKVNNEGEGDPFYEVLGLVTLEDVIEEIIKSEILDESDMYTDNRTRKRVSVKNKRDFSAFKDTDNELKVKISPQLLLAAHRFLATEVPQFSPSLMSEKILLRLLKYPDVIQELRFNEHNRYCVRHYLYTRNKPADCFVLILQGKVEVEAGKENMKFETGAFSYYGTMALSVAPPDRSPALPTPLSRSASLSYPDRNTDLTSTSLAGSNQFGSCILGQYVSDFSVRALTDLQYIKITRQQYQNGLMASRMDNSPQPTFDGCATCSENFMERPELPPVDETTTLLNERNSLLHRASEEETI
As to B5, in assay [1], the binding entry is on record as “binds”.

B6: CNNM4, endogenous in HEK293 cells (protein, UniProt Q6P4Q7 1-775)
chain: MAPVGGGGRPVGGPARGRLLLAAPVLLVLLWALGARGQGSPQQGTIVGMRLASCNKSCGTNPDGIIFVSEGSTVNLRLYGYSLGNISSNLISFTEVDDAETLHKSTSCLELTKDLVVQQLVNVSRGNTSGVLVVLTKFLRRSESMKLYALCTRAQPDGPWLKWTDKDSLLFMVEEPGRFLPLWLHILLITVLLVLSGIFSGLNLGLMALDPMELRIVQNCGTEKERRYARKIEPIRRKGNYLLCSLLLGNVLVNTSLTILLDNLIGSGLMAVASSTIGIVIFGEILPQALCSRHGLAVGANTILLTKFFMLLTFPLSFPISKLLDFFLGQEIRTVYNREKLMEMLKVTEPYNDLVKEELNMIQGALELRTKTVEDIMTQLQDCFMIRSDAILDFNTMSEIMESGYTRIPVFEDEQSNIVDILYVKDLAFVDPDDCTPLKTITRFYNHPVHFVFHDTKLDAMLEEFKKGKSHLAIVQKVNNEGEGDPFYEVLGLVTLEDVIEEIIKSEILDESDMYTDNRSRKRVSEKNKRDFSAFKDADNELKVKISPQLLLAAHRFLATEVSQFSPSLISEKILLRLLKYPDVIQELKFDEHNKYYARHYLYTRNKPADYFILILQGKVEVEAGKENMKFETGAFSYYGTMALTSVPSDRSPAHPTPLSRSASLSYPDRTDVSTAATLAGSSNQFGSSVLGQYISDFSVRALVDLQYIKITRQQYQNGLLASRMENSPQFPIDGCTTHMENLAEKSELPVVDETTTLLNERNSLLHKASHENAI
With B6, in assay [2], the binding result is on record as “binds”.

B7: CNNM2, endogenous in HEK293 cells (protein, UniProt Q9H8M5 1-875)
chain: MIGCGACEPKVKMAGGQAAAALPTWKMAARRSLSARGRGILQAAAGRLLPLLLLSCCCGAGGCAAVGENEETVIIGLRLEDTNDVSFMEGGALRVSERTRVKLRVYGQNINNETWSRIAFTEHERRRHSPGERGLGGPAPPEPDSGPQRCGIRTSDIIILPHIILNRRTSGIIEIEIKPLRKMEKSKSYYLCTSLSTPALGAGGSGSTGGAVGGKGGSGVAGLPPPPWAETTWIYHDGEDTKMIVGEEKKFLLPFWLQVIFISLLLCLSGMFSGLNLGLMALDPMELRIVQNCGTEKEKNYAKRIEPVRRQGNYLLCSLLLGNVLVNTTLTILLDDIAGSGLVAVVVSTIGIVIFGEIVPQAICSRHGLAVGANTIFLTKFFMMMTFPASYPVSKLLDCVLGQEIGTVYNREKLLEMLRVTDPYNDLVKEELNIIQGALELRTKTVEDVMTPLRDCFMITGEAILDFNTMSEIMESGYTRIPVFEGERSNIVDLLFVKDLAFVDPDDCTPLKTITKFYNHPLHFVFNDTKLDAMLEEFKKGKSHLAIVQRVNNEGEGDPFYEVLGIVTLEDVIEEIIKSEILDETDLYTDNRTKKKVAHRERKQDFSAFKQTDSEMKVKISPQLLLAMHRFLATEVEAFSPSQMSEKILLRLLKHPNVIQELKYDEKNKKAPEYYLYQRNKPVDYFVLILQGKVEVEAGKEGMKFEASAFSYYGVMALTASPVPLSLSRTFVVSRTELLAAGSPGENKSPPRPCGLNHSDSLSRSDRIDAVTPTLGSSNNQLNSSLLQVYIPDYSVRALSDLQFVKISRQQYQNALMASRMDKTPQSSDSENTKIELTLTELHDGLPDETANLLNEQNCVTHSKANHSLHNEGAI
B7: in assay [2], the binding entry is listed as “binds”.

B8: Transporter CNNM3, Cyclin-M3, endogenous in rodent brain (protein, UniProt Q32NY4 1-713)
chain: MAAAAAAVVGWLGWVLAAFCLGSTAGEAAPAPGAGLLNFCTEEDSAPGAGSLRGRAAPEATLCLRLFCSGLANSSWTWVAAEGAGCPEGGRATEPEEAAAPTGEWRALLRLRAEAGHPRSALLAVRVEPGGGAAEEAAPPWALGLGAAGLLALAAVARGLQLSALALAPAEVQVLRESGSEAERAAARRLEPARRWAGCALGALLLLASLAQAALAVLLYGAAGQRAVPAVLGCAGLVFLVGEVLPAAVSGRWALALAPRALGLSRLAVLLTLPVALPVGQLLELAARPGRLRERVLELARGGGDPYSDLSKGVLRSRTVEDVLTPLEDCFMLDSGTVLDFSVLASIMQSGHTRIPVYEEERSNIVDMLYLKDLAIVEPEDCTPLSTITRFYNHPLHFVFNDTKLDAVLEEFKRGKSHLAIVQKVNNEGEGDPFYEVLGLVTLEDVIEEIIKSEILDESEDYSDTKVRKKTVALGAPLKRKEEFSLFKVSDDEYKVKISPQLLLATQRFLSREVDVFSPLRVSEKVLLHLLKHPSVNQEVTFDESNRLAAHHYLYQRSQPVDYFILILQGRVEVEIGKEGLKFENGAFTYYGVSALTAPSSAHQSPVSSRQLIRHDVQPEPADGTRSCTYCPDYTVRALSDLQLIKVTRLQYLNALLATRAQSLPPSPENAELQAIPGSQTRLLGDKSRETAGSTNSRPSIPVEESPGRNPGV
With B8, the binding entry in assay [1] is recorded as “binds”.
